Patent US6790540B2, “Organic electroluminescent element material and organic electroluminescent element” (Nippon Steel Chemical Co., Ltd., priority 2000, dated 2004)

Columns and labels:
[1] = Organic EL element, luminescent layer by vacuum deposition (ITO/TPD/compound/LiF/Al); conditions: for luminance: at the turn-on voltage; for turn-on voltage: EL element as in Example 8, compound as luminescent material
[2] = Organic EL element, luminescent layer applied by spin coating; conditions: direct current voltage of 5 V, EL elements as in Example 23, Table 3
[3] = EL elements as in Example 8, Table 2

**Q.** With CCCCCCCCS(=O)(=O)[N-]c1ccccc1-c1nc2ccccc2o1.CCCCCCCCS(=O)(=O)[N-]c1ccccc1-c1nc2ccccc2o1.[Zn+2] [Compound 6a, zinc bis-2-(2-(n-octylsulfonamido)phenyl)benzoxazolate] as the compound, how does the “Turn-on voltage for electroluminescence” value [1, 3] read?
**A.** The value was 5.8 V.

**Q.** What about the luminance [1, 3] of the same compound?
**A.** Its luminance is 4,900 cd/m^2.

**Q.** What about the luminance [2] of the same compound?
**A.** The luminance was 120 cd/m^2.

**Q.** For Cc1ccc(S(=O)(=O)[N-]c2ccccc2-c2ccccn2)cc1.Cc1ccc(S(=O)(=O)[N-]c2ccccc2-c2ccccn2)cc1.[Zn+2] [Compound 3, zinc bis-2-(2-(p-toluenesulfonamido)phenyl)pyridinate], which “colour of emitted light” value ([1]; EL element as in Example 8) is on record?
**A.** Its value is “blue”.

**Q.** And the “drive current density at a luminance of 1,000 cd/m^2” value ([1]; EL element as in Example 8)?
**A.** The value was 65 A/cm^2.

**Q.** What about the turn-on voltage [1] of the same compound?
**A.** The turn-on voltage was 5.5 V.

**Q.** What about the luminance ([1]; EL element as in Example 8) of the same compound?
**A.** Its luminance is 6,800 cd/m^2.

**Q.** What does the source list for c1cnc2c([O][Al]([O]c3cccc4cccnc34)[O]c3cccc4cccnc34)cccc2c1 [Alq3, aluminum-8-hydroxyquinoline complex]?
**A.** colour of emitted light ([1]; EL element as in Example 8): green; drive current density at a luminance of 1,000 cd/m^2 ([1]; EL element as in Example 8): 50 A/cm^2; turn-on voltage [1]: 3.5 V; luminance ([1]; EL element as in Example 8): 18,000 cd/m^2

**Q.** With Cc1ccc(S(=O)(=O)[N-]c2ccccc2-c2nc3ccccc3o2)cc1.Cc1ccc(S(=O)(=O)[N-]c2ccccc2-c2nc3ccccc3o2)cc1.[Zn+2] [Compound 2a, zinc bis-2-(2-(p-toluenesulfonamido)phenyl)benzoxazolate] as the compound, how does the “colour of emitted light” value ([1]; EL element as in Example 8) read?
**A.** The value was “blue”.

**Q.** And the “drive current density at a luminance of 1,000 cd/m^2” value ([1]; EL element as in Example 8)?
**A.** Its value is 60 A/cm^2.

**Q.** And the turn-on voltage [1]?
**A.** The turn-on voltage was 5.5 V.

**Q.** And the luminance ([1]; EL element as in Example 8)?
**A.** Its luminance is 6,500 cd/m^2.

**Q.** With CCCCCCCCS(=O)(=O)[N-]c1cccc2cccnc12.CCCCCCCCS(=O)(=O)[N-]c1cccc2cccnc12.[Zn+2] [Compound B, zinc bis-8-(n-octylsulfonamido)quinolinate] as the compound, how does the luminance [2] read?
**A.** The luminance was 210 cd/m^2.
